Measured values: PubChem BioAssay AID1347076 (National Center for Advancing Translational Sciences (NCATS), 2019)
The whole screen tested about 400,000 compounds, of which about 13,000 (3.2%) were called active. Inconclusive results, whose numbers are uncertain, are shown with a selection of clear calls. Calls come from the whole dose curve; as a rule, active = well fitted cell-killing curve with a large enough effect; inconclusive = small, poorly fitted or top-dose-only effect, or effect the other way; inactive = flat fitted curve, though single readings scatter. Potencies beside an inconclusive call are fits to weak or partial responses and may not hold up.

Experiment: qHTS assay for MDR1-selective chemotherapeutics: Primary screen using the drug-selected MDR subline cells KB-V1; note: nearly all actives have a fitted effect of over 60% in size
Conditions: KB-V1 MDR cells viability, CellTiter-Glo, 72 h; series mostly up to 46.1 µM
Method in brief: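 Compound-treated KB-V1 multidrug-resistant cells, 72 h, 37 degrees C; viability by CellTiter-Glo. Fitted qHTS curves give the values.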
Potency is the fitted concentration of half-maximal effect.

**Q.** Which Potency does the source give for `CN(Cc1ccccc1)C(=O)c1ccc(NC(=O)Cc2ccc(NC(=O)C3CCCN(C(=O)C4CC4)C3)cc2)cc1` (stereo unspecified) here?
**A.** Its Potency is “inactive”.

**Q.** Which Potency does the source give for `CC1(C(=O)NCc2ccccc2Br)CCN1C(=O)Cc1ccc(-c2ccccc2)cc1` (stereo unspecified) here?
**A.** The Potency was inconclusive: 4.61 µM [cytotoxic, partial curve].

**Q.** With `CCOC(=O)c1c(C)[nH]c(C)c1S(=O)(=O)N1CCCC(C(=O)NCc2ccc(N(C)C)cc2)C1` (stereo unspecified) as the compound, how does the Potency read?
**A.** Its Potency is “inactive”.

**Q.** With `Cc1nn(CC(=O)NC2(C#N)CCCCC2)c(C)c1[N+](=O)[O-]` as the compound, how does the Potency read?
**A.** Its Potency is inconclusive: 3.26 µM [cytotoxic, partial curve, poor fit].

**Q.** For `COC(=O)C1=CN(c2c(C)cc(C)cc2C)C(N)=C(C#N)C1c1cccc(F)c1` (stereo unspecified), which Potency is on record?
**A.** The Potency was “inactive”.

**Q.** With `CC(C)(C)C(=O)CSc1ccc(S(=O)(=O)N2CCN(Cc3ccccc3)CC2)cn1` as the compound, how does the Potency read?
**A.** Its Potency is inconclusive: 18.4 µM [cytotoxic, single point].

**Q.** Which Potency does the source give for `Cc1ccc(NC(=O)c2ccc(C)c(S(=O)(=O)N3CCOCC3)c2)nc1` here?
**A.** Its Potency is active: 14.6 µM.

**Q.** For `O=C(O)CCC(=O)Nc1ccccc1C(=O)NCc1ccccc1`, which Potency is on record?
**A.** Its Potency is inconclusive: 10.3 µM [rising, partial curve, poor fit].

**Q.** With `Cc1cc(C(=O)COC(=O)c2ccc([N+](=O)[O-])o2)c(C)n1CC1CCCO1` (stereo unspecified) as the compound, how does the Potency read?
**A.** The Potency was “inactive”.

**Q.** For `COc1ccc2[nH]c(=O)c(CN(Cc3cccs3)C(=S)NCC3CCCO3)cc2c1` (stereo unspecified), which Potency is on record?
**A.** Its Potency is inconclusive: 11.6 µM [cytotoxic, partial curve].

**Q.** Which Potency does the source give for `CC1=C(C#N)CCC(=O)N1Cc1c(C)cc(C)cc1C` here?
**A.** The Potency was inconclusive: 14.6 µM [cytotoxic, partial curve].

**Q.** For `CCc1c(C(=O)NC2CCCCC2)[nH]c(C)c1C(C)=O`, which Potency is on record?
**A.** Its Potency is active: 18.4 µM.

**Q.** For `CSc1nc(Cl)cc(Nc2ccccc2N)n1`, which Potency is on record?
**A.** The Potency was inconclusive: 29.1 µM [cytotoxic, single point].

**Q.** Which Potency does the source give for `Cc1cc(C)nc(Nc2nc(C(N)Cc3ccc(C(F)(F)F)cc3)cs2)n1` (stereo unspecified) here?
**A.** The Potency was inconclusive: 20.6 µM [cytotoxic, partial curve, poor fit].

**Q.** With `Cn1nnnc1Sc1ncnc2scc(-c3ccc(C(F)(F)F)cc3)c12` as the compound, how does the Potency read?
**A.** The Potency was active: 18.4 µM.

**Q.** For `COc1ccc(-c2cc(C(F)(F)F)n3nc(-c4ccccc4)cc3n2)cc1OC`, which Potency is on record?
**A.** The Potency was inconclusive: 29.1 µM [rising, single point].

**Q.** Which Potency does the source give for `COc1ccccc1NC(=O)C1CC(O)CN1C(=O)Oc1ccccc1` (stereo unspecified) here?
**A.** Its Potency is inconclusive: 0.731 µM [cytotoxic, full curve, poor fit].

**Q.** With `Cc1ccc(-c2nnc(SCC(=O)Nc3ccccc3F)o2)cc1` as the compound, how does the Potency read?
**A.** Its Potency is active: 8.2 µM.

**Q.** With `CCOc1ccc(S(=O)(=O)N2c3ccccc3CC2C)cc1` (stereo unspecified) as the compound, how does the Potency read?
**A.** The Potency was active: 1.46 µM.

**Q.** With `COc1ccc(Cl)cc1Nc1nc(NCCO)nc(N2CCCC2)n1` as the compound, how does the Potency read?
**A.** The Potency was “inactive”.

**Q.** With `CN(C)c1ccc(/C=C/C(=O)c2c(O)c3ccccc3oc2=O)cc1` as the compound, how does the Potency read?
**A.** The Potency was “inactive”.

**Q.** With `CC(=O)c1c(C)nc2ccc(C)cc2c1-c1ccccc1` as the compound, how does the Potency read?
**A.** The Potency was inconclusive: 16.4 µM [cytotoxic, single point].

**Q.** Which Potency does the source give for `CCc1ccccc1NS(=O)(=O)c1ccc2c(c1)CC(=O)N2` here?
**A.** The Potency was “inactive”.

**Q.** For `CC(C)CN(C(=O)CCC(=O)OCc1ccc(Cl)cc1Cl)c1c(N)n(CC(C)C)c(=O)[nH]c1=O`, which Potency is on record?
**A.** The Potency was “inactive”.

**Q.** For `O=C1c2ccccc2NC(c2ccccc2Br)N1CCCN1CCOCC1` (stereo unspecified), which Potency is on record?
**A.** The Potency was inconclusive: 20.6 µM [cytotoxic, single point].

**Q.** For `CN(CC(=O)Nc1cc(C(F)(F)F)ccc1-n1cncn1)Cc1ccccc1N1CCOCC1`, which Potency is on record?
**A.** Its Potency is inconclusive: 18.4 µM [cytotoxic, single point].

**Q.** For `CCOc1ccc(N(CC(=O)NCCCOC)S(C)(=O)=O)cc1`, which Potency is on record?
**A.** The Potency was inconclusive: 25.9 µM [rising, single point].

**Q.** For `Cc1nnc(SCCn2c(N3CC(C)CC(C)C3)nc3c2c(=O)n(C)c(=O)n3C)s1` (stereo unspecified), which Potency is on record?
**A.** The Potency was active: 20.6 µM.

**Q.** Which Potency does the source give for `CC(C)CN(C(=O)c1ccc(S(=O)(=O)N2CCOCC2)cc1)C1CCS(=O)(=O)C1` (stereo unspecified) here?
**A.** The Potency was “inactive”.

**Q.** For `Cc1ccc(/C=C/c2onc(C)c2S(=O)(=O)N2CCC(C(=O)Nc3ccccc3C(F)(F)F)CC2)cc1`, which Potency is on record?
**A.** Its Potency is inconclusive: 25.9 µM [rising, single point].

**Q.** For `COc1ccc([C@@H]2[C@@H]3C(=O)N(C(C)(C)C)C(=O)[C@@H]3[C@]3(C)C(=O)N(c4cccc(Br)c4)C(=O)N23)cc1`, which Potency is on record?
**A.** Its Potency is “inactive”.

**Q.** With `Cc1ccc(S(=O)(=O)N2CCCN(C(=O)OC(C)(C)C)CC2)cc1` as the compound, how does the Potency read?
**A.** Its Potency is inconclusive: 3.26 µM [cytotoxic, partial curve, poor fit].

**Q.** Which Potency does the source give for `CC1CCCC(NC(=O)C2COc3ccccc3O2)C1C` (stereo unspecified) here?
**A.** The Potency was active: 13 µM.

**Q.** Which Potency does the source give for `CCOc1nc(Nc2ccc(OC)cc2)nc(OCC)n1` here?
**A.** Its Potency is “inactive”.

**Q.** For `CN1CCN(c2ccc(C(CC(N)=O)NC(=O)Cc3ccc(Br)cc3)cc2[N+](=O)[O-])CC1` (stereo unspecified), which Potency is on record?
**A.** Its Potency is “inactive”.

**Q.** With `CCCCSc1nnc2n(-c3ccc(OC)cc3)c(=O)c3c4c(sc3n12)COC(C(C)C)C4` (stereo unspecified) as the compound, how does the Potency read?
**A.** Its Potency is “inactive”.

**Q.** With `C(=N\Nc1nc2ccccc2s1)/c1cccs1` as the compound, how does the Potency read?
**A.** The Potency was inconclusive: 29.1 µM [cytotoxic, single point].

**Q.** With `Cc1ccc(C(C(=O)NC(C)(C)C)N(Cc2cccnc2)C(=O)C(=O)NC2CCCCC2)o1` (stereo unspecified) as the compound, how does the Potency read?
**A.** Its Potency is inconclusive: 9.2 µM [cytotoxic, partial curve, poor fit].

**Q.** With `Cc1ccccc1CN1CCN(CC(=O)NC(C)c2ccccc2)CC1` (stereo unspecified) as the compound, how does the Potency read?
**A.** Its Potency is inconclusive: 14.6 µM [cytotoxic, partial curve, poor fit].

**Q.** Which Potency does the source give for `CC(=O)c1cccc(NC(=O)CSc2nc(=O)n(Cc3ccco3)c3c2CCC3)c1` here?
**A.** The Potency was “inactive”.

**Q.** Which Potency does the source give for `CN(C)S(=O)(=O)c1cc(NC(=O)CN2CCN(c3ccccc3)CC2)ccc1Cl` here?
**A.** Its Potency is inconclusive: 9.2 µM [cytotoxic, partial curve].

**Q.** For `CC(=O)c1cccc(NC(=O)CCc2nnc3ccc(NCc4ccc5c(c4)OCO5)nn23)c1`, which Potency is on record?
**A.** Its Potency is “inactive”.

**Q.** Which Potency does the source give for `Cc1csc(=O)n1CC(=O)Nc1ccc(C(C)C)cc1` here?
**A.** The Potency was “inactive”.

**Q.** For `Nc1cccc2c1C(=O)N(C(=O)/C=C/c1cccc(Br)c1)C2=O`, which Potency is on record?
**A.** Its Potency is inconclusive: 29.1 µM [cytotoxic, single point].

**Q.** For `N#Cc1nc(-c2ccc(F)cc2)oc1NCc1ccccc1`, which Potency is on record?
**A.** Its Potency is “inactive”.

**Q.** Which Potency does the source give for `CC1CCN(c2nc(CN3CCCCC3)nc3scc(-c4ccccc4)c23)CC1` here?
**A.** Its Potency is inconclusive: 8.2 µM [cytotoxic, partial curve, poor fit].
